Measured values published in PubChem BioAssay AID493014 (National Center for Advancing Translational Sciences (NCATS), 2011).
The list shows a part of the results. Further columns of the screen follow, without active or inactive calls. Compounds called inactive in the main read-out are mostly missing here. Words in brackets tell the shape of the fitted curve; partial curves, single points and poor fits give uncertain potencies.

Assay: qHTS Assay to Find Inhibitors of Chronic Active B-Cell Receptor Signaling
Settings: ABC-DLBCL IkBa-CBG/CBR reporter, luminescence ratio (green luciferase fused to IkBa over red control in TMD8 lymphoma cells), 4 h
In short: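 TMD8 human ABC-DLBCL cells with doxycycline-inducible IκBα–green luciferase fusion and unfused red luciferase, in 0.5% FBS medium; compounds up to 46 uM, 4 h at 37C. Green/red luminescence ratio, filter-overlap corrected, fitted to concentration-response curves.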

[1] = measured here: CBR red luminescence, cell number

| Structure (SMILES) | AC50 [1] | AC50 (measured here: IkBa-CBG green luminescence) |
| --- | --- | --- |
| C/C(=N\NC(=O)c1cccc(S(=O)(=O)Nc2cccc(Cl)c2)c1)c1cccs1 | 20.6 µM [rising, partial curve, poor fit] | – |
| CC(C)Cc1csc(NC(=O)c2ccc(F)cc2)c1C(=O)O | 0.517 µM [falling, full curve] | – |
| Cc1csc(NC(=O)CSc2ccc(-c3ccccn3)nn2)n1 | 4.47 µM [falling, full curve] | – |
| COc1cc2c(cc1OC)CN(CC(=O)Nc1ccc(F)cc1)CC2 | 7.08 µM [falling, partial curve] | – |
| Cc1nc2nc(SCC(=O)NCc3ccco3)nn2c(C)c1Cc1ccccc1 | 29.1 µM [falling, single point] | – |
| CCOc1ccc(Br)cc1C1=NN(C(C)=O)C(c2ccc([N+](=O)[O-])s2)O1 (stereo not drawn) | 7.08 µM [falling, partial curve, poor fit] | – |
| CNCc1c(OCc2ccccc2F)ccc2ccccc12 | 35.5 µM [falling, single point] | – |
| CCN(CCNC(=O)C1CCN(S(=O)(=O)c2cccc3nsnc23)CC1)c1ccccc1 | 7.94 µM [falling, partial curve, poor fit] | – |
| COCc1cc(C)nc(Oc2ccccc2)c1C#N | 4.47 µM [rising, full curve, poor fit] | – |
| O=C(COC(=O)c1ccco1)c1ccc2ccccc2c1 | 18.4 µM [rising, partial curve, poor fit] | – |
| Cc1c(C(=O)N2CCC[C@H]2CO)oc2c(F)cccc12 | 35.5 µM [falling, partial curve, poor fit] | – |
| Cc1ccc(O)c(-c2cc(-c3cccc(F)c3)n[nH]2)c1 | 4.11 µM [rising, partial curve, poor fit] | – |
| CCCCOc1ccc(CSc2nnc(C)n2N)cc1[N+](=O)[O-] | 2 µM [falling, partial curve] | – |
| Cc1ccc(NC(=O)C2C3CCCC2C3c2ccccc2)cc1 (stereo not drawn) | 16.4 µM [rising, partial curve, poor fit] | – |
| O/N=C/c1ccccc1OCc1ccccc1Cl | 11.2 µM [rising, partial curve] | – |
| COc1ccc(CCN(C)CC(O)c2ccccc2)cc1OC (stereo not drawn) | 5.62 µM [rising, single point] | – |
| Cc1ccc(-n2nnnc2-c2cnc(-c3cccnc3)nc2C(F)(F)F)cc1 | 32.6 µM [falling, single point] | – |
| Cc1cc(Br)ccc1NC(=O)c1cnc(N2CCN(c3ccccn3)CC2)c2ccccc12 | 5.62 µM [falling, full curve] | – |
| CC[C@]12c3[nH]c4cc(-c5ccco5)ccc4c3CCN1C(=O)[C@@H](CC(=O)NCCCn1ccnc1)C[C@@H]2C(=O)N1CCN(C(=O)C2CC2)CC1 | 20.6 µM [rising, single point] | – |
| CC1COC(Cn2c3ccccc3c3ccccc32)O1 (stereo not drawn) | 5.01 µM [rising, partial curve, poor fit] | – |
| Cc1nc2nc(-c3ccc(Cl)cc3)cn2nc1C | 29.1 µM [rising, partial curve, poor fit] | – |

Nothing new here: an excerpt of the list.

| Structure (SMILES) | AC50 [1] | AC50 (measured here: IkBa-CBG green luminescence) |
| --- | --- | --- |
| Cc1csc(NC(=O)CSc2ccc(-c3ccccn3)nn2)n1 | 4.47 µM [falling, full curve] | – |
| COc1cc2c(cc1OC)CN(CC(=O)Nc1ccc(F)cc1)CC2 | 7.08 µM [falling, partial curve] | – |
| Cc1nc2nc(SCC(=O)NCc3ccco3)nn2c(C)c1Cc1ccccc1 | 29.1 µM [falling, single point] | – |
| CCOc1ccc(Br)cc1C1=NN(C(C)=O)C(c2ccc([N+](=O)[O-])s2)O1 (stereo not drawn) | 7.08 µM [falling, partial curve, poor fit] | – |
| CNCc1c(OCc2ccccc2F)ccc2ccccc12 | 35.5 µM [falling, single point] | – |
| CCN(CCNC(=O)C1CCN(S(=O)(=O)c2cccc3nsnc23)CC1)c1ccccc1 | 7.94 µM [falling, partial curve, poor fit] | – |
| COCc1cc(C)nc(Oc2ccccc2)c1C#N | 4.47 µM [rising, full curve, poor fit] | – |

Next compounds:

| Structure (SMILES) | AC50 [1] | AC50 (measured here: IkBa-CBG green luminescence) |
| --- | --- | --- |
| Cn1c2cc(Br)sc2c2cnn(Cc3c(F)cccc3Cl)c(=O)c21 | 29.1 µM [rising, single point] | 13 µM [falling, partial curve, poor fit] |
| C=CCNc1oc(-c2ccc(OC)cc2)nc1C#N | 10.3 µM [rising, partial curve, poor fit] | – |
| Cc1cccc(N=Nc2ccc(O)c3ncccc23)c1 | 2.59 µM [rising, full curve] | – |
| CCc1c(C)nc2nc(SCc3ccccc3Cl)[nH]n2c1=O | 8.91 µM [falling, partial curve] | – |
| Cc1ccccc1NC(=O)COC(=O)CCC(=O)c1cccs1 | 32.6 µM [rising, partial curve, poor fit] | – |
| CCCCn1c(SCC(=O)N2CCCC2)nnc1-c1ccccc1 | 8.2 µM [falling, partial curve, poor fit] | – |
| O=C(CCNC(=O)c1ccccc1)N/N=C/c1ccc([N+](=O)[O-])cc1 | 11.2 µM [falling, partial curve, poor fit] | – |
| Cc1ccc(NC(=O)[C@H](CC(C)C)NC(=O)[C@@H]2Cc3ccccc3CN2)cc1 | 3.16 µM [rising, full curve, poor fit] | – |
| COc1ccccc1/C=C/c1nc(C#N)c(N(C)C)o1 | 7.08 µM [rising, full curve] | – |
| Cc1cccc(C)c1NC(=S)NNc1ncc(C(F)(F)F)cc1Cl | 6.51 µM [falling, full curve] | – |
| O=C(CCl)N(c1ccccc1)c1c[nH]c2ccccc12 | 7.08 µM [falling, partial curve, poor fit] | – |
| O=S(=O)(Cc1cc(-c2ccccc2)no1)c1ccccc1 | 15.8 µM [falling, single point] | – |
| CCN1CCN(CCCOc2ccc(Cl)cc2Br)CC1 | 35.5 µM [falling, single point] | – |
| CC(=O)CSc1nc(N)c(C#N)c(-c2cccs2)c1C#N | 2.31 µM [falling, partial curve, poor fit] | – |
| CC1CC1C(=O)Nc1nc(-c2ccccn2)cs1 (stereo not drawn) | 0.366 µM [rising, full curve, poor fit] | – |
| COc1ccc(-c2noc(CCC(=O)N3CCN(c4ccccc4F)CC3)n2)cc1 | 29.1 µM [rising, partial curve, poor fit] | – |
| Cc1ccc(C)c(NC(=O)CN(C)C(=O)CN2C(=O)C3CCCCC3C2=O)c1 (stereo not drawn) | 16.4 µM [falling, single point] | – |
| CCCCCC(=O)N/N=C/c1cccs1 | 3.98 µM [rising, full curve, poor fit] | – |
| O=C(CCNC(=O)c1ccco1)Nc1cccc(C(F)(F)F)c1 | 8.91 µM [rising, partial curve, poor fit] | – |
| O=C(CC(SCc1ccco1)c1ccc(O)cc1)c1cccs1 (stereo not drawn) | 35.5 µM [falling, single point] | – |
| CCOc1ccccc1-c1c2cc(O)c(=O)cc-2oc2cc(O)c(O)cc12 | 29.1 µM [rising, single point] | – |
